Laboratory results from US20250281630A1 (TORAY INDUSTRIES, published 2025).
No constants are given. Whether binding was seen depends on the method and setting. Some entries that bind do so weakly or less than the wild type.

What was measured:
[1] = target: T1, mouse CAPRIN-1 on mouse cancer cells (mouse, UniProt Q60865 2-707); assay: flow cytometry, Renca and 4T1 cells
T1 construct: whole, on cells
T1 sequence (looked up): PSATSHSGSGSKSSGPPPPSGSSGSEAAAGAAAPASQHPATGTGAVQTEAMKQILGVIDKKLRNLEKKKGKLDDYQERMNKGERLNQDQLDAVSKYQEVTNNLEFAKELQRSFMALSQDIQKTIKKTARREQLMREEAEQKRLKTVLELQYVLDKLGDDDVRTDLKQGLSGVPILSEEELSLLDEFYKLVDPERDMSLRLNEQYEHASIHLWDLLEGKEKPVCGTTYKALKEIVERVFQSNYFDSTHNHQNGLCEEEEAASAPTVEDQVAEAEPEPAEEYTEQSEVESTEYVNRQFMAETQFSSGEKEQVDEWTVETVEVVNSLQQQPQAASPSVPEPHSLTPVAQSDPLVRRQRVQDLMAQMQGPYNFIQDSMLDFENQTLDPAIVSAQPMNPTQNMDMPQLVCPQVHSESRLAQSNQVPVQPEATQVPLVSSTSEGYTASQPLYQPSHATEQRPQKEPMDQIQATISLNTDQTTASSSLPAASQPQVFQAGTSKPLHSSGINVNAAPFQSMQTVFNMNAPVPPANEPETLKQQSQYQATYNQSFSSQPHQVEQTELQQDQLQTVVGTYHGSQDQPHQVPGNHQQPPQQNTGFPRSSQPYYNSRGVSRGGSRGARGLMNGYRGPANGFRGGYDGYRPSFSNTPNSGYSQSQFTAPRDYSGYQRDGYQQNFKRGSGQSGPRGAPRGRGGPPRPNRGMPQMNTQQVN

[2] = target: T2, human CAPRIN-1 on the cell membrane surface of human cancer cells (human) (UniProt Q14444); assay: flow cytometry, human cancer cell lines
T2 sequence (looked up): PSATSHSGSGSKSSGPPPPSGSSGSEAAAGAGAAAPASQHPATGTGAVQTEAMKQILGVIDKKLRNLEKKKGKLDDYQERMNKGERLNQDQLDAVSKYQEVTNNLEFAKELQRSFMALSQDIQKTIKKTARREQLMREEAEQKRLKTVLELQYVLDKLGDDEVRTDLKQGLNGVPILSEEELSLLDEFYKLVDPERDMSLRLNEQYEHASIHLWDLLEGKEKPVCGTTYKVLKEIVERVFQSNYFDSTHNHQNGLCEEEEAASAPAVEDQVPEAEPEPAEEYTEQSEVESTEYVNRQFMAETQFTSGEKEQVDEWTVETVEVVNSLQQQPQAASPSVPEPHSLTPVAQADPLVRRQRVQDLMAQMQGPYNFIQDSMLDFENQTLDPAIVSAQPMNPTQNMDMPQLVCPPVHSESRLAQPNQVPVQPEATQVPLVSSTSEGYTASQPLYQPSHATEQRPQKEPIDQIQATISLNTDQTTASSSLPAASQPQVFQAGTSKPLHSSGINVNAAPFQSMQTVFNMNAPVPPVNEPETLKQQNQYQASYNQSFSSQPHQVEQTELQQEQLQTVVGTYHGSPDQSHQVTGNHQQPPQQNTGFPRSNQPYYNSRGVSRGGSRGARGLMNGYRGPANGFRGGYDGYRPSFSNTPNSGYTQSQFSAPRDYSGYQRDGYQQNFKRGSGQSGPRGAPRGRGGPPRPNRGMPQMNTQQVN

[3] = target: T2, human CAPRIN-1 on the cell membrane surface of human cancer cells (human); assay: HT29 cells, as shown in Example 5
[4] = target: T2, human CAPRIN-1 on the cell membrane surface of human cancer cells (human); assay: flow cytometry, BT474 cells

Measured: binding

B1: Conjugate 53 (antibody, human IgG1, V domains shown)
VH: DAELVKPGASVKISCKASGYTFTDHSIHWVQQKPEQGLEWIGYISPGNGNIKYNEKFKGKATLTADKSSSTAYMQLNSLTSEDSAVYFCKRSLGRGGPYYFDYWGQGTTVTVSS
VL: DIVLTQAAPSLPVTPGESVSISCRSSKSLLHSNGNTYLYWFLQRPGQSPQLLIYRMSNLASGVPDRFSGSGSGTAFTLRISRVEAEDVGVYYCMQHREYPVTFGSGPN
binds: all assays above

B2: Conjugate 52 (antibody, human IgG1, V domains shown)
VH: GAELVRSGASVKMSCKASGYSFTDYNMYWVKQTPGQGLEWIGYIYPGNGGTNYNQKFKGKATLTADTSSSTAYMQISSLTSEDSAVYFCARDYDDGGYAMDYWGQGTTVTVSS
VL: DIQMTQSPASLSASVGETVTITCRASGNIHNYLTWYQQKQGKSPQLLVYNAKTLADGVPSRFSGSGSGTQYSLKINRLQPEDFGSYYCQHFWNIPWTFGGGTKLNSR
binds: all assays above

B3: Conjugate 48 (antibody, human IgG1, V domains shown)
VH: AVTLDESGGGLQTPGGALSLVCKASGFTFSGYDMLWVRQAPGKGLEWVAGIGSTGGGTDYGAAVKGRATISRDNGQSTVRLQLNNLRAEDTATYYCAKVAGGCNSGYCRDSPGSIDAWGHGTEVIVS
VL: AVTQQPASVSANPGETVKITCSGGGSRNYYGWYQQKSPGSVPVTVIYYDDQRPSNIPSRFSGALSGSTSTLTITGVQADDEAVYFCGSADSNTYEGSFGAGTTLTVL
binds: all assays above

B4: Conjugate 36 (antibody, human IgG1, V domains shown)
VH: GPDLVKPGASVKISCKASGYSFTAYYMHWVKQSHGKSLEWIGRVNPNNGGTTYNQKFKGKAILTVDKSSSTAYMELRSLTFEDSAVYYCARRIYYGYFDYWGQGTTVTVSS
VL: AFFAVSLGQRATISCKASQSVDYDGDSYMNWYQQKPGQPPKLLIYVASNLESGVPARFSGSGSGTDFTLNIHPVEEEDAATYYCQQSNEDPYTFGGGTKLEIKQ
binds: all assays above

B5: Conjugate 69 (antibody, human IgG1, V domains shown)
VH: GPDLVKPGASVKISCKASGYSFTAYYMHWVKQSHGKSLEWIGRVNPNNGGTTYNQKFKGKAILTVDKSSSTAYMELRSLTFEDSAVYYCARRIYYGYFDYWGQGTTVTVSS
VL: AFFAVSLGQRATISCKASQSVDYDGDSYMNWYQQKPGQPPKLLIYVASNLESGVPARFSGSGSGTDFTLNIHPVEEEDAATYYCQQSNEDPYTFGGGTKLEIKQ
binds: all assays above

B6: Conjugate 12 (antibody, human IgG1, V domains shown)
VH: EQSLVESGGGLVQPGGSLRLSCAASGFSLSSHSLGWVRQAPGKGLEWIGDIRSGGSAYYANWAKGRFTISRDNSKNTLYLQMNSLRAEDTAVYYCTRTNGPSDLTNRLDLWGQGTLVTVSS
VL: QVLTQSPSSLSASVGDRVTINCQASQSLYNNENLAWFQQKPGKVPKRLIYGASTLASGVSSRFSGSGSGTEFTLTISSLQCEDFAIYYCLGEFSCGSADCFAFGGGTKVEIK
binds: all assays above

B7: Conjugate 80 (antibody, human IgG1, V domains shown)
VH: EVQLVESGGGLVQPGGSLRLSCAASGFSLSSHSLGWVRQAPGKGLEWIGDIRSGGSAYYANWAKGRFTISRDNSKNTLYLQMNSLRAEDTAVYFCTRTNGPSDLTNRLDLWGQGTLVTVSS
VL: EQVLTQSPSSLSASVGDRVTINCQASQSLYNNENLAWFQQKPGKVPKRLIYGASTLASGVSSRFSGSGSGTEFTLTISNLQPEDFAIYYCLGEFSCGSADCFAFGGGTKVEIK
binds: all assays above

B8: Conjugate 79 (antibody, human IgG1, V domains shown)
VH: EVQLVESGGGLVQPGGSLRLSCAASGFSLSSHSLGWVRQAPGKGLEWIGDIRSGGSAYYANWAKGRFTISRDNSKNTLYLQMNSLRAEDTAVYYCTRTNGPSDLTNRLDLWGQGTLVTVSS
VL: EIVLTQSPSSLSASVGDRVTINCQASQSLYNNENLAWFQQKPGKVPKRLIYGASTLASGVSSRFSGSGSGTEFTLTISNLQPEDFATYYCLGEFSCGSADCFAFGGGTKVEIK
binds: all assays above

B9: Conjugate 78 (antibody, human IgG1, V domains shown)
VH: EVQLVESGGGLVQPGGSLRLSCAASGFSLSSHSLGWVRQAPGKGLEWIGDIRSGGSAYYANWAKGRFTISRDNSKNTLYLQMNSLRAEDTAVYFCTRTNGPSDLTNRLDLWGQGTLVTVSS
VL: EIVLTQSPSSLSASVGDRVTINCQASQSLYNNENLAWFQQKPGKVPKRLIYGASTLASGVSSRFSGSGSGTEFTLTISNLQPEDFATYYCLGEFSCGSADCFAFGGGTKVEIK
binds: all assays above

B10: Conjugate 75 (antibody, human IgG1, V domains shown)
VH: EVQLVESGGGLVQPGGSLRLSCAASGFSLSSHSLGWVRQAPGKGLEWIGDIRSGGSAYYANWAKGRFTISRDNSKNTLYLQMNSLRAEDTAVYYCTRTNGPSDLTNRLDLWGQGTLVTVSS
VL: QVLTQSPSSLSASVGDRVTINCQASQSLYNNENLAWFQQKPGKVPKRLIYGASTLASGVSSRFSGSGSGTEFTLTISSLQCEDFAIYYCLGEFSCGSADCFAFGGGTKVEIK
binds: all assays above

B11: Conjugate 77 (antibody, human IgG1, V domains shown)
VH: EVQLVESGGGLVQPGGSLRLSCAASGFSLSSHSLGWVRQAPGKGLEWIGDIRSGGSAYYANWAKGRFTISRDNSKNTLYLQMNSLRAEDTAVYYCTRTNGPSDLTNRLDLWGQGTLVTVSS
VL: EQVLTQSPSSLSASVGDRVTINCQASQSLYNNENLAWFQQKPGKVPKRLIYGASTLASGVSSRFSGSGSGTEFTLTISNLQPEDFAIYYCLGEFSCGSADCFAFGGGTKVEIK
binds: all assays above

B12: Conjugate 76 (antibody, human IgG1, V domains shown)
VH: EVQLVESGGGLVQPGGSLRLSCAASGFSLSSHSLGWVRQAPGKGLEWIGDIRSGGSAYYANWAKGRFTISRDNSKNTLYLQMNSLRAEDTAVYFCTRTNGPSDLTNRLDLWGQGTLVTVSS
VL: QVLTQSPSSLSASVGDRVTINCQASQSLYNNENLAWFQQKPGKVPKRLIYGASTLASGVSSRFSGSGSGTEFTLTISSLQCEDFAIYYCLGEFSCGSADCFAFGGGTKVEIK
binds: all assays above
